These are literature values, as cited in patent publication US20220095646A1, “METHODS FOR THE PRODUCTION AND USE OF MYCELIATED AMINO ACID-SUPPLEMENTED FOOD COMPOSITIONS” (MycoTechnology, Inc., priority 2019, published 2022).

The structures appear in SMILES notation.

For the data set the following is noted: free amino acid.
Take `N[C@@H](CS)C(=O)O` [Cysteine]: the taste as described result is “strong, concentrated and nausea-inducing, compared to sewage, rotten eggs and sulfur, and bitter”. With `NCCCC[C@H](N)C(=O)O` [Lysine], the taste as described entry is “salty and bitter with a sharp component”. With `CSCC[C@H](N)C(=O)O` [methionine], the taste as described result is “very repulsive, metallic, mineral, bitter and induces nausea”.
